{
  "source": "patent US10456407B2",
  "about": "“Combination therapy for treating cancer” (Epizyme, Inc., priority 2015, dated 2019)",
  "test_in_all_cases": "cells",
  "key": {"[1]": {"system": "OCI-Ly19 cells", "conditions": "Homo sapiens"}, "[2]": {"system": "WSU-DLCL2 cells", "conditions": "Homo sapiens"}, "[3]": {"system": "SU-DHL10 cells", "conditions": "Homo sapiens"}, "[4]": {"system": "SU-DHL4 cells", "conditions": "Homo sapiens"}, "[5]": {"system": "DOHH2 cells", "conditions": "Homo sapiens"}, "[6]": {"system": "RL cells", "conditions": "Homo sapiens, 96 h, read-out: 4 Day Cpd44 IC50, Cpd44 Co-treatment"}},
  "note": "Read-outs that look alike come from different tables or passages of the source.",
  "data": [
    {"compound": "CCN(c1cc(-c2ccc(CN3CCOCC3)cc2)cc(C(=O)NCc2c(C)cc(C)[nH]c2=O)c1C)C1CCOCC1", "note": "[Compound 44]", "values": [
      {"measurement": "IC50", "setting": "[1]; OCI-LY19, 96 h, read-out: 4 Day Cpd44 IC50, Cpd44 Co-treatment, OCI-Ly19 (WT), 4 day co-treatment with fixed concentration of prednisolone", "value": 190, "unit": "nM"},
      {"measurement": "IC50", "setting": "[1]; OCI-LY19, read-out: 7 Day Cpd44 IC50, 4 d Cpd44 Pre/3 d Co-treat, OCI-Ly19 (WT), 4 d Compound 44 pre-treatment, 3 d co-treatment with prednisolone", "value": 5.5, "unit": "nM"},
      {"measurement": "IC50", "setting": "[2]; WSUDLCL2, 96 h, read-out: 4 Day Cpd44 IC50, Cpd44 Alone", "value": 530, "unit": "nM"},
      {"measurement": "IC50", "setting": "[2]; WSUDLCL2, 96 h, read-out: 4 Day Cpd44 IC50, Cpd44 Co-treatment", "value": 20, "unit": "nM"},
      {"measurement": "IC50", "setting": "[2]; WSUDLCL2, […], read-out: 7 Day Cpd44 IC50, 7 d Co-treatment", "value": 14, "unit": "nM"},
      {"measurement": "IC50", "setting": "[3]; SU-DHL10, 96 h, read-out: 4 Day Cpd44 IC50, Cpd44 Alone", "value": 640, "unit": "nM"},
      {"measurement": "IC50", "setting": "[3]; SU-DHL10, 96 h, read-out: 4 Day Cpd44 IC50, Cpd44 Co-treatment", "value": 9.2, "unit": "nM"},
      {"measurement": "IC50", "setting": "[3]; SU-DHL10, […], read-out: 7 Day Cpd44 IC50, 7 d Co-treatment", "value": 20, "unit": "nM"},
      {"measurement": "IC50", "setting": "[3]; SU-DHL10, read-out: 7 Day Cpd44 IC50, 4 d Pred Pre/3 d Co-treat, SU-DHL10 (Y646-Sens), 4 d prednisolone pre-treatment, 3 d co-treatment", "value": 520, "unit": "nM"},
      {"measurement": "IC50", "setting": "[4]; SU-DHL-4, […], read-out: 7 Day Cpd44 IC50, 7 d Co-treatment, SU-DHL4 (Y646-Res), 7 day co-treatment with prednisolone", "value": 510, "unit": "nM"},
      {"measurement": "IC50", "setting": "[4]; SU-DHL-4, read-out: 7 Day Cpd44 IC50, 4 d Cpd44 Pre/3 d Co-treat, SU-DHL4 (Y646-Res), 4 d Compound 44 pre-treatment, 3 d co-treatment with prednisolone", "value": 35, "unit": "nM"},
      {"measurement": "IC50", "setting": "[5]; DOHH-2, 96 h, read-out: 4 Day Cpd44 IC50, Cpd44 Co-treatment, DOHH2 (WT), 4 day co-treatment with fixed concentration of prednisolone", "value": 200, "unit": "nM"},
      {"measurement": "IC50", "setting": "[5]; DOHH-2, […], read-out: 7 Day Cpd44 IC50, 7 d Co-treatment, DOHH2 (WT), 7 day co-treatment with prednisolone", "value": 340, "unit": "nM"},
      {"measurement": "IC50", "setting": "[6]", "value": 9.6, "unit": "nM"}
    ]}
  ]
}
